Legend:
[1] = test system: diaphragm contraction and workload; experiment: Diaphragmatic electromyography after diazepam / buprenorphine; assay type: in vivo, Sprague–Dawley rat; settings: 30 mg kg BUP intraperitoneally, 20 mg kg DZP subcutaneously
11C-BUP brain binding = settings: 20 mg kg DZP subcutaneously 15 min before 11C-BUP; all studied brain regions

SMILES: CN1C(=O)CN=C(c2ccccc2)c2cc(Cl)ccc21 [diazepam]
- diaphragm contraction (first 60 min AUC) [1]: This increase was inhibited in the presence of DZP
- TACs and 11C-BUP BPND, DZP BUP vs VEH BUP (11C-BUP brain binding): not different
